PubChem BioAssay AID1259425 – University of Nebraska Medical Center – 2018

Aim: 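Seek colon cancer weak points whose silencing resembles KSR1 loss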 (primary screen)
System: HCT116 human colon cancer cells
Reagent: siRNA pool against human genes, 50 nM siRNA
Measurement: 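mRNA of six signature genes measured together by branched-DNA assay after 50 nM siRNA pool, blank removed, divided by geometric mean of two housekeeping genes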
Reading the numbers: BNIP3L mRNA: higher = more BNIP3L transcript after knockdown; NDRG1 mRNA: higher = more NDRG1 transcript after knockdown; BNIP3 mRNA: higher = more BNIP3 transcript after knockdown
The deposit covers about 14,000 reagents; below is a random part of them. Further read-outs or replicates are left out here. The record does not give: the time to read-out.

| gene | BNIP3L mRNA, set 1 | NDRG1 mRNA, set 1 | BNIP3 mRNA, set 1 |
| --- | --- | --- | --- |
| PDIA3 | 0.0974 | 0.165 | 0.276 |
| MRPL33 | 0.0969 | 0.237 | 0.285 |
| FLI1 | 0.16 | 0.245 | 0.421 |
| GSTT2 | 0.151 | 0.24 | 0.36 |
| CCL24 | 0.147 | 0.154 | 0.318 |
| LGALS3BP | 0.174 | 0.0568 | 0.194 |
| NMB | 0.0916 | 0.213 | 0.364 |
| MTMR12 | 0.222 | 0.422 | 0.466 |
| SOX4 | 0.101 | 0.175 | 0.277 |
| MRPL1 | 0.127 | 0.155 | 0.4 |
| KCNJ13 | 0.0714 | 0.297 | 0.276 |
| BOLA1 | 0.0861 | 0.152 | 0.147 |
| GPCPD1 | 0.207 | 0.452 | 0.301 |
| IPO11 | 0.0894 | 0.215 | 0.498 |
| LRRC40 | 0.351 | 0.791 | 0.403 |
| SCG3 | 0.0729 | 0.195 | 0.222 |
| SPAG5 | 0.121 | 0.169 | 0.334 |
| GNG11 | 0.199 | 0.191 | 0.491 |
| WIPI2 | 0.105 | 0.167 | 0.628 |
| DPP8 | 0.0964 | 0.141 | 0.331 |
| TCIRG1 | 0.0383 | 0.109 | 0.586 |
| NCALD | 0.35 | 0.42 | 0.32 |
| GPR84 | 0.156 | 0.227 | 0.521 |
| DUSP14 | 0.138 | 0.176 | 0.369 |
| ZG16B | 0.168 | 0.0977 | 0.507 |
| SEC61A2 | 0.116 | 0.106 | 0.388 |
| MGST2 | 0.0922 | 0.117 | 0.252 |
| CTRB1 | 0.131 | 0.134 | 0.27 |
| PHF8 | 0.206 | 0.24 | 0.266 |
| CLIP1 | 0.101 | 0.0868 | 0.211 |
| SOX7 | 0.319 | 0.448 | 0.45 |
| TARBP2 | 0.197 | 0.0939 | 0.305 |
| TELO2 | 0.0717 | 0.286 | 0.171 |
| UBR5 | 0.117 | 0.107 | 0.255 |
| PHLPP1 | 0.113 | 0.151 | 0.226 |
| SOX2 | 0.096 | 0.428 | 0.284 |
| COX7A1 | 0.163 | 0.208 | 0.219 |
| CCN5 | 0.0486 | 0.308 | 0.256 |
| PTPN11 | 0.0659 | 0.0732 | 0.194 |
| CRYGC | 0.114 | 0.151 | 0.213 |
| CPOX | 0.11 | 0.0364 | 0.26 |
| TAP2 | 0.086 | 0.121 | 0.274 |
| SDCBP2 | 0.0574 | 0.168 | 0.26 |
| SEC22A | 0.127 | 0.246 | 0.215 |
| APOE | 0.164 | 0.182 | 0.288 |
| JTB | 0.0512 | 0.151 | 0.345 |
| HPCAL1 | 0.0923 | 0.114 | 0.228 |
| FOXJ1 | 0.184 | 0.384 | 0.343 |
| NR1D2 | 0.0992 | 0.104 | 0.14 |
| ZNF442 | 0.227 | 0.471 | 0.302 |

6 entries from above, reformatted:
gene,"BNIP3L mRNA, set 1","NDRG1 mRNA, set 1","BNIP3 mRNA, set 1"
ZG16B,0.168,0.0977,0.507
SEC61A2,0.116,0.106,0.388
MGST2,0.0922,0.117,0.252
CTRB1,0.131,0.134,0.27
PHF8,0.206,0.24,0.266
CLIP1,0.101,0.0868,0.211
